Measured values taken from PMC3937224, “Convergence of Light and ABA Signaling on the ABI5 Promoter” (PLoS Genetics, 2014).
Numbering of substitutions follows the chain as printed. In names and notes the source's numbering stands. These are yes or no findings as the source states them, for the method shown. Some results given as binding are weak or reduced against the parent protein; the word gives no strength. Values belong to the binder of their own block, whether it stands above or below them.

Key:
[1] = target: T1, ABI5 (Arabidopsis thaliana) (UniProt Q9SJN0); assay: two-hybrid; yeast two-hybrid; X-gal plates and liquid assay (Clontech Yeast Protocols Handbook); BBX21 domains fused to GAL4-AD
T1 sequence: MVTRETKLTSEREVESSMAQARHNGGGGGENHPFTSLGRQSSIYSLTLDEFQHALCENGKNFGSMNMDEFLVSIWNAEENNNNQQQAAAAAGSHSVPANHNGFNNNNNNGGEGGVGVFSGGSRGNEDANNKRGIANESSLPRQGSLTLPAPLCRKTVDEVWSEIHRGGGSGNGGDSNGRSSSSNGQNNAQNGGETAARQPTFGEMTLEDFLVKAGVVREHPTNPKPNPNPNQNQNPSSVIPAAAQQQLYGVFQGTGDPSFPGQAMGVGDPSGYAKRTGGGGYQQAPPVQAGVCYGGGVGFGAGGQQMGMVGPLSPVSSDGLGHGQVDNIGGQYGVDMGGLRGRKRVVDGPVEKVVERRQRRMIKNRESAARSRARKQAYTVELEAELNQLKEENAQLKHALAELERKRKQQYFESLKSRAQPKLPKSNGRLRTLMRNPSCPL

[2] = target: T2, HY5 (Arabidopsis thaliana) (UniProt O24646); assay: as above
T2 sequence: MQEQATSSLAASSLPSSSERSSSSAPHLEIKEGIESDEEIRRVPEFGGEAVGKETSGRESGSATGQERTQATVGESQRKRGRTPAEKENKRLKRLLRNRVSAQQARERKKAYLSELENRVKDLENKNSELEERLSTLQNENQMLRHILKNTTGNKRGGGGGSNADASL

B2: BBX21 D75A (protein, UniProt Q9LQZ7 1-331)
chain: MKIRCDVCDKEEASVFCTADEASLCGGCDHQVHHANKLASKHLRFSLLYPSSSNTSSPLCDICQDKKALLFCQQARAILCKDCDSSIHAANEHTKKHDRFLLTGVKLSATSSVYKPTSKSSSSSSSNQDFSVPGSSISNPPPLKKPLSAPPQSNKIQPFSKINGGDASVNQWGSTSTISEYLMDTLPGWHVEDFLDSSLPTYGFSKSGDDDGVLPYMEPEDDNNTKRNNNNNNNNNNNTVSLPSKNLGIWVPQIPQTLPSSYPNQYFSQDNNIQFGMYNKETSPEVVSFAPIQNMKQQGQNNKRWYDDGGFTVPQITPPPLSSNKKFRSFW
binding [1]: binds

B4: BBX21 D20A (protein, UniProt Q9LQZ7 1-331)
chain: B2 chain with D20A, A75D
binding [1]: binds

The remaining lines, values ahead:

binding [1]: binds | binding [2]: binds
B1: 6×His-BBX21 (natural protein, Arabidopsis thaliana, UniProt Q9LQZ7 1-331, looked up)
chain: B2 chain with A75D
notes: BBX21 (STH2), Arabidopsis thaliana; also called 6×His-tagged BBX21; source: Escherichia coli, purified

binding [1]: binds
B3: BBX21 D84A (protein, UniProt Q9LQZ7 1-331)
chain: B2 chain with A75D, D84A
